Data source: PubChem BioAssay AID504804 (Drosophila RNAi Screening Center, 2011)
Purpose: 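Fly genes whose loss lessens doxorubicin-driven cell death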 (primary screen). Cells: Drosophila Kc cells. Reagent: long dsRNA against Drosophila genes, 0.5 µg dsRNA per well. Timing: 96 h (48 h knock-down, then 48 h drug). Challenge: doxorubicin 5 µg/ml for 48 h, added 48 h after dsRNA. Measurement: 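Viability measured as cellular ATP by luminescence after 48 h knock-down then 48 h doxorubicin at 5 µg/ml; unnormalised plate counts for each replicate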. Scale: raw ATP luminescence: higher = more viable cells, protection from doxorubicin. Active means: 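Active when both duplicate wells lie at least 2 SD above the plate mean and protection is confirmed by rescreening and independent dsRNAs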.
The screen tested about 19,000 reagents; this is an unselected part of those with a known target gene and a result. Of all reagents, 47 (0.25%) are marked active. 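Signals are raw, not normalised; exact z-scores behind calls not deposited; actives needed confirmation, so some wells reaching 2 SD are inactive.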

The opening 10 records, ahead of the listing:
| target | DRSC id | raw ATP luminescence, replicate 1 | raw ATP luminescence, replicate 2 | outcome |
| --- | --- | --- | --- | --- |
| cyr (cypher) | DRSC18017 | 42010 | 60740 | inactive |
| cyr (cypher) | DRSC18018 | 37670 | 38230 | inactive |
| cyr (cypher) | DRSC18021 | 41830 | 49190 | inactive |
| wa-cup (walker cup) | DRSC12511 | 60260 | 58113 | inactive |
| CG17660 | DRSC00513 | 90167 | 69560 | inactive |
| CG14502 | DRSC06473 | 48067 | 58233 | inactive |
| CG6179 | DRSC19973 | 2.86e5 | 2.86e5 | inactive |
| morgue (modifier of rpr and grim, ubiquitously expressed) | DRSC00264 | 1.30e5 | 82957 | inactive |
| shakB (shaking B) | DRSC20492 | 4.17e5 | 3.94e5 | inactive |
| shakB (shaking B) | DRSC20585 | 3.19e5 | 3.47e5 | inactive |

The list itself, from the first entry:
| target | DRSC id | raw ATP luminescence, replicate 1 | raw ATP luminescence, replicate 2 | outcome |
| --- | --- | --- | --- | --- |
| cyr (cypher) | DRSC18017 | 42010 | 60740 | inactive |
| cyr (cypher) | DRSC18018 | 37670 | 38230 | inactive |
| cyr (cypher) | DRSC18021 | 41830 | 49190 | inactive |
| wa-cup (walker cup) | DRSC12511 | 60260 | 58113 | inactive |
| CG17660 | DRSC00513 | 90167 | 69560 | inactive |
| CG14502 | DRSC06473 | 48067 | 58233 | inactive |
| CG6179 | DRSC19973 | 2.86e5 | 2.86e5 | inactive |
| morgue (modifier of rpr and grim, ubiquitously expressed) | DRSC00264 | 1.30e5 | 82957 | inactive |
| shakB (shaking B) | DRSC20492 | 4.17e5 | 3.94e5 | inactive |
| shakB (shaking B) | DRSC20585 | 3.19e5 | 3.47e5 | inactive |
| alphaTub84B (alpha-Tubulin at 84B) | DRSC12622 | 56367 | 62897 | inactive |
| egr (eiger) | DRSC06233 | 52477 | 80647 | inactive |
| if (inflated) | DRSC20341 | 3.12e5 | 2.35e5 | inactive |
| CG14297 | DRSC14776 | 33880 | 20720 | inactive |
| CG11373 | DRSC12170 | 49813 | 60243 | inactive |
| cac (cacophony) | DRSC19743 | 3.61e5 | 3.69e5 | inactive |
| CG1529 | DRSC20515 | 2.57e5 | 2.76e5 | inactive |
| CG31161 | DRSC16144 | 61420 | 59940 | inactive |
| Spn55B (Serpin 55B) | DRSC07694 | 1.76e5 | 1.82e5 | inactive |
| CG44836 | DRSC09915 | 85973 | 64187 | inactive |
| Cpr (Cytochrome P450 reductase) | DRSC03293 | 1.13e5 | 74293 | inactive |
| CG33127 | DRSC00011 | 2.20e5 | 2.22e5 | inactive |
| CecC (Cecropin C) | DRSC16606 | 39000 | 16000 | inactive |
| CG31516 | DRSC11994 | 58843 | 76607 | inactive |
| Or33a (Odorant receptor 33a) | DRSC03386 | 50973 | 71423 | inactive |
| Dtg (Dpp target gene) | DRSC15998 | 63920 | 27920 | inactive |
| P5cr-2 (Pyrroline-5-carboxylate reductase-like 2) | DRSC15889 | 66580 | 54640 | inactive |
| cn (cinnabar) | DRSC07594 | 41930 | 61470 | inactive |
| CG34163 | DRSC01219 | 3.44e5 | 2.86e5 | inactive |
| CG14096 | DRSC10099 | 72837 | 75477 | inactive |
| CG11629 | DRSC03695 | 61437 | 61303 | inactive |
| hydra | DRSC20497 | 3.06e5 | 3.32e5 | inactive |
| CG14868 | DRSC14991 | 1.88e5 | 2.14e5 | inactive |
| CheA7a (Chemosensory protein A 7a) | DRSC17965 | 58410 | 69270 | inactive |
| AOX3 (Aldehyde oxidase 3) | DRSC15955 | 52950 | 28370 | inactive |
| CG13738 | DRSC10065 | 62200 | 57803 | inactive |
| Cyp313a4 (Cytochrome P450 313a4) | DRSC16627 | 46057 | 47643 | inactive |
| CG34433 | DRSC15077 | 73220 | 46990 | inactive |
| Elovl7 (ELOVL fatty acid elongase 7) | DRSC15452 | 72997 | 49510 | inactive |
| sfl (sulfateless) | DRSC08828 | 1.35e5 | 1.25e5 | inactive |
| sfl (sulfateless) | DRSC08830 | 1.60e5 | 1.67e5 | inactive |
| mask (multiple ankyrin repeats single KH domain) | DRSC15370 | 63990 | 74490 | inactive |
| mask (multiple ankyrin repeats single KH domain) | DRSC16005 | 49027 | 48967 | inactive |
| mask (multiple ankyrin repeats single KH domain) | DRSC16018 | 64070 | 56410 | inactive |
| Scox (Synthesis of cytochrome c oxidase) | DRSC03117 | 32047 | 38043 | inactive |
| Nxt1 (NTF2-related export protein 1) | DRSC04630 | 47983 | 45033 | inactive |
| Sras (severas) | DRSC11287 | 75367 | 95010 | inactive |
| CG12716 | DRSC19493 | 3.59e5 | 3.35e5 | inactive |
| EMC4 (ER membrane protein complex subunit 4) | DRSC11638 | 50563 | 54770 | inactive |
| blw (bellwether) | DRSC04675 | 54707 | 41087 | inactive |
| Kat60 (Katanin 60) | DRSC12378 | 65160 | 70927 | inactive |
| CG7627 | DRSC03065 | 1.06e5 | 98290 | inactive |
| GABA-B-R2 (metabotropic GABA-B receptor subtype 2) | DRSC14134 | 51013 | 48330 | inactive |
| eloF (elongase F) | DRSC15162 | 52853 | 38497 | inactive |
| ab (abrupt) | DRSC03478 | 10463 | 14283 | inactive |
| CG34047 (retired record) | DRSC07857 | 1.63e5 | 1.67e5 | inactive |
| CG30274 | DRSC04171 | 54877 | 56443 | inactive |
| CG12811 | DRSC14549 | 48550 | 63067 | inactive |
| pins (partner of inscuteable) | DRSC17043 | 33230 | 42270 | inactive |
| CG14120 | DRSC10124 | 83373 | 87813 | inactive |
| CCHa2 (CCHamide-2) | DRSC14835 | 86250 | 83890 | inactive |
| fz (frizzled) | DRSC11348 | 57710 | 48673 | inactive |
| 5-HT1B (5-hydroxytryptamine (serotonin) receptor 1B) | DRSC05769 | 19957 | 14313 | inactive |
| bchs (blue cheese) | DRSC03126 | 40277 | 41783 | inactive |
| CG14185 | DRSC10184 | 68100 | 62187 | inactive |
| PIG-G (Phosphatidylinositol glycan anchor biosynthesis class G) | DRSC06823 | 91680 | 71680 | inactive |
| Dhps (Deoxyhypusine synthase) | DRSC10948 | 76487 | 82003 | inactive |
| CG32081 | DRSC09861 | 87380 | 78580 | inactive |
| ND-B8 (NADH dehydrogenase (ubiquinone) B8 subunit) | DRSC00449 | 25877 | 31113 | inactive |
| Oatp58Dc (Organic anion transporting polypeptide 58Dc) | DRSC04363 | 84743 | 85950 | inactive |
| CG14219 | DRSC19576 | 3.22e5 | 3.22e5 | inactive |
| Abcd3 (ATP binding cassette subfamily D member 3) | DRSC19488 | 2.10e5 | 1.99e5 | inactive |
| CG32373 | DRSC08895 | 1.93e5 | 1.58e5 | inactive |
| Dis3 | DRSC16034 | 45043 | 40990 | inactive |
| CG5262 | DRSC11773 | 28330 | 28643 | inactive |
| orb (oo18 RNA-binding protein) | DRSC17021 | 13107 | 15010 | inactive |
| CSN7 (COP9 signalosome subunit 7) | DRSC06807 | 71047 | 49453 | inactive |
| CSN7 (COP9 signalosome subunit 7) | DRSC06808 | 76937 | 79737 | inactive |
| ubl (ubiquitin like) | DRSC04998 | 38053 | 89500 | inactive |
| Sec6 (Secretory 6) | DRSC06932 | 73673 | 76743 | inactive |
| CG12325 | DRSC06130 | 60283 | 50920 | inactive |
| Alg11 (ALG11, alpha-1,2-mannosyltransferase) | DRSC11647 | 23690 | 25167 | inactive |
| CG4459 | DRSC15582 | 53990 | 57200 | inactive |
| Npc2c (Niemann-Pick type C-2c) | DRSC15523 | 50140 | 46563 | inactive |
